Counter-ions that a name gives are not always drawn. Like-named read-outs stand apart in the source and are kept apart here. The whole screen tested about 3,300 compounds, of which about 95 (3%) showed an effect of 50% or more. This is one part of the list.
Test system: HCoV-229E
Set-up: species or system Huh-7; HTS, protection from HCoV-229E induced cell death, luminescent cell viability (CellCounting-Lite 2.0), inhibition rate
Settings: 24 h post infection, 1 h compound pre-incubation, 10 µM, inhibitor

O=C1C=CC[C@@H]2[C@H]3CCCN4CCC[C@@H](CN12)[C@@H]34 [Sophocarpine]
229E Inhibition rate (229E Inhibition rate, 24 h): 19.6%

C[C@H](Cc1ccc(O)c(O)c1)[C@@H](C)Cc1ccc(O)c(O)c1 [Nordihydroguaiaretic acid]
229E Inhibition rate: 32.5%

Cc1c(=O)c(=O)c2c3c[nH]c4c(C)c(=O)c(=O)c(c5c[nH]c1c52)c43 [Melanin]
229E Inhibition rate: 10.8%

COc1ccc(-c2cc(=O)c3c(OC)cc(OC)cc3o2)cc1 [5,7,4'-Trimethoxyflavone]
229E Inhibition rate: 20.3%

C=C[C@H]1[C@H](O[C@@H]2O[C@H](CO)[C@@H](O)[C@H](O)[C@H]2O)OC=C(C(=O)OC)[C@H]1C[C@@H]1c2cc(O)c(O)cc2CCN1C(C)=O [Ipecoside]
229E Inhibition rate: 0%

C=C[C@H]1CN2CC[C@@]3(C(=O)Nc4ccccc43)[C@@H]2C[C@@H]1/C(=C\OC)C(=O)OC [Isocorynoxeine]
229E Inhibition rate: 41%

COc1cc([C@@H]2c3cc4c(cc3[C@@H]3OC[C@H]2[C@@H]3CO)OCO4)cc(OC)c1OC [Neoanhydropodophyllol]
229E Inhibition rate: 9.1%

CCCCCC(C)C(=O)O (stereo not drawn) [2-Methylheptanoic acid]
229E Inhibition rate: 47.5%

CCC(=O)C(=O)O [2-Oxobutanoic acid]
229E Inhibition rate: 38.8%

S=C=NCc1ccccc1 [Benzyl isothiocyanate]
229E Inhibition rate: 15%

COc1cc(/C=C/C=O)ccc1O [Coniferaldehyde]
229E Inhibition rate: 38.5%

CCCCCCCC=O [Octanal]
229E Inhibition rate: 21.4%

CCCCCCC(O)C(=O)O (stereo not drawn) [2-Hydroxyoctanoic acid]
229E Inhibition rate: 9.9%

COc1c2ccoc2c(OC[C@H]2OC2(C)C)c2oc(=O)ccc12 [Byakangelicol]
229E Inhibition rate: 17.1%

C=C[C@H]1[C@H](O[C@@H]2O[C@H](CO)[C@@H](O)[C@H](O)[C@H]2OC(=O)c2c(O)cc(O)cc2-c2cccc(O)c2)OC=C2C(=O)OCC[C@H]21 [Amarogentin]
229E Inhibition rate: 15.4%

Nc1ccn([C@@H]2O[C@H](COP(=O)(O)O)[C@@H](O)[C@H]2O)c(=O)n1 [Cytidine 5'-monophosphate]
229E Inhibition rate: 10.5%

C[C@H](CC[C@@H](O[C@@H]1O[C@H](CO[C@@H]2O[C@H](CO)[C@@H](O)[C@H](O)[C@H]2O)[C@@H](O)[C@H](O)[C@H]1O[C@@H]1O[C@H](CO)[C@@H](O)[C@H](O)[C@H]1O)C(C)(C)O)[C@H]1CC[C@@]2(C)[C@@H]3CC=C4[C@@H](CC[C@H](O[C@@H]5O[C@H](CO[C@@H]6O[C@H](CO)[C@@H](O)[C@H](O)[C@H]6O)[C@@H](O)[C@H](O)[C@H]5O)C4(C)C)[C@]3(C)C(=O)C[C@]12C [11-oxo-mogroside V]
229E Inhibition rate: 0%

CCCCCCCCCCCCCCCc1cc(O)cc(O)c1 [5-Pentadecylresorcinol]
229E Inhibition rate: 51.7%

O=C(O)CC(O)(CC(=O)O)C(=O)O [Sodium citrate (dihydrate)]
229E Inhibition rate (229E Inhibition rate, 24 h): 0%

C/C1=C\CCC2=C[C@@H](OC2=O)c2c(C)coc2C1 [Linderalactone]
229E Inhibition rate: 9.2%

COc1ccc(CO)cc1OC [Veratryl alcohol]
229E Inhibition rate: 10.7%

CC1(C)COC(=O)[C@@H]1O [(R)-3-Hydroxy-4,4-dimethyldihydrofuran-2(3H)-one]
229E Inhibition rate: 19%

CC(C)=CCC[C@](C)(O[C@@H]1O[C@H](CO[C@@H]2OC[C@@H](O)[C@H](O)[C@H]2O)[C@@H](O)[C@H](O)[C@H]1O)[C@H]1CC[C@]2(C)[C@@H]1[C@H](O)C[C@@H]1[C@@]3(C)CC[C@H](O[C@@H]4O[C@H](CO)[C@@H](O)[C@H](O)[C@H]4O[C@@H]4O[C@H](CO)[C@@H](O)[C@H](O)[C@H]4O)C(C)(C)[C@@H]3CC[C@]12C [Ginsenoside Rb3]
229E Inhibition rate: 8%

CCCCC/C=C\C/C=C\CCCCCCCCO [Linoleyl alcohol]
229E Inhibition rate: 42.1%

CO[C@H]1C[C@H](O[C@H]2CC[C@@]3(C)[C@H](CC[C@@H]4[C@@H]3CC[C@]3(C)[C@@H](C5=CC(=O)OC5)[C@@H](OC(C)=O)C[C@]43O)C2)O[C@@H](C)[C@@H]1O [Oleandrin]
229E Inhibition rate: 9.1%

C=C(C)[C@@H]1CC[C@]2(C(=O)O[C@@H]3O[C@H](CO[C@@H]4O[C@H](CO)[C@@H](O[C@@H]5O[C@@H](C)[C@H](O)[C@@H](O)[C@H]5O)[C@H](O)[C@H]4O)[C@@H](O)[C@H](O)[C@H]3O)CC[C@]3(C)[C@H](CC[C@@H]4[C@@]5(C)CC[C@H](O[C@@H]6OC[C@H](O)[C@H](O)[C@H]6O[C@@H]6O[C@@H](C)[C@H](O)[C@@H](O)[C@H]6O)[C@@](C)(CO)[C@@H]5CC[C@]43C)[C@@H]12 [Pulchinenoside C]
229E Inhibition rate: 12.2%

O=C(/C=C/c1ccc(O)c(O)c1)O[C@@H](C(=O)O)[C@@H](O)C(=O)O [Caftaric acid]
229E Inhibition rate: 12.1%

COc1ccc(CCC(=O)c2c(O)cc(O[C@@H]3O[C@H](CO)[C@@H](O)[C@H](O)[C@H]3O[C@@H]3O[C@@H](C)[C@H](O)[C@@H](O)[C@H]3O)cc2O)cc1O [Neohesperidin dihydrochalcone]
229E Inhibition rate: 0%

CCCCC/C=C\C/C=C\C/C=C\C/C=C\CCCC(=O)O[C@H]1CC[C@@]2(C)C(=CC[C@H]3[C@@H]4CC[C@H]([C@H](C)CCCC(C)C)[C@@]4(C)CC[C@@H]32)C1 [Cholesteryl arachidonate]
229E Inhibition rate: 31.7%

CC(C)=CCC[C@@H](C)[C@@H]1CC[C@]2(C)C3=C(CC[C@@]12C)[C@@]1(C)CC[C@H](O)C(C)(C)[C@@H]1CC3 [Euphol]
229E Inhibition rate: 11.3%

CCCCCCCC(=O)c1c(O)cc(O)cc1CC(=O)OCC [Cytosporone B]
229E Inhibition rate: 42.9%

COC(=O)[C@H]1[C@H]2C[C@H]3c4[nH]c5ccccc5c4CCN3C[C@H]2CC[C@@H]1O [Rauwolscine (hydrochloride)]
229E Inhibition rate: 43.9%

CC(C)CCC[C@](C)(O)[C@H]1CC[C@H]2[C@@H]3CC=C4C[C@@H](O)CC[C@]4(C)[C@H]3CC[C@@]21C [20(S)-Hydroxycholesterol]
229E Inhibition rate: 57%

CC(=O)N[C@@H](CC(N)=O)C(=O)O [(S)-2-acetamido-4-amino-4-oxobutanoic acid]
229E Inhibition rate: 14.8%

C[C@H]1[C@H]2CC[C@H]3[C@@H]4CC=C5C[C@@H](N(C)C)CC[C@]5(C)[C@H]4CC[C@]23CN1C [Conessine]
229E Inhibition rate: 41.8%

O=C(O)C1CCCCC1 [Cyclohexanecarboxylic acid]
229E Inhibition rate: 11.6%

COc1cc2ccc(=O)oc2cc1OC [Scoparone]
229E Inhibition rate: 12%

O=C(O)c1cc(O)ccc1O [2,5-Dihydroxybenzoic acid]
229E Inhibition rate: 16.7%

O=C(/C=C/c1ccc(O)c(O)c1)c1ccc(O)c(O)c1O [Okanin]
229E Inhibition rate: 16.1%

CCCCCCCCC1=C(CCCCCCCC(=O)O)C1 [Sterculic acid]
229E Inhibition rate: 20%

CC(CCC(=O)O)CC(=O)O (stereo not drawn) [3-Methyladipic acid]
229E Inhibition rate: 15%

C[n+]1cccc(C(=O)[O-])c1 [Trigonelline]
229E Inhibition rate (229E Inhibition rate, 24 h): 7.5%

C[C@H](O)[C@H](O)[C@H]1CNc2nc(N)[nH]c(=O)c2N1 [Tetrahydrobiopterin]
229E Inhibition rate: 16.1%

CC1=CC[C@@]23C[C@@H]1C(C)(C)[C@@H]2CC[C@H]3C [(-)-Cedrene]
229E Inhibition rate: 15.2%

C[C@H]1CC[C@@H](C(C)(C)O)CC2=C1CC[C@@H]2C [Guaiol]
229E Inhibition rate: 7.2%

CC[C@H](CC[C@@H](C)[C@H]1CC[C@H]2[C@@H]3CC=C4C[C@@H](O[C@@H]5O[C@H](CO)[C@@H](O)[C@H](O)[C@H]5O)CC[C@]4(C)[C@H]3CC[C@]12C)C(C)C [Daucosterol]
229E Inhibition rate: 5.6%

CC[C@]1(O)C[C@@H]2CN(CCc3c([nH]c4ccccc34)[C@@](C(=O)OC)(c3cc4c(cc3OC)N(C)[C@H]3[C@@](O)(C(=O)OC)[C@H](OC(C)=O)[C@]5(CC)C=CCN6CC[C@]43[C@@H]65)C2)C1 [Vinblastine (sulfate)]
229E Inhibition rate: 30.6%

Nc1nc(=O)n([C@H]2C[C@H](O)[C@@H](CO)O2)cc1CO [5-Hydroxymethyl-2’-deoxycytidine]
229E Inhibition rate: 0%

C[C@H]1CCCC(=O)CCCCCc2cc(O)cc(O)c2C(=O)O1 [Zearalanone]
229E Inhibition rate: 44.1%

O=C(/C=C/c1ccc(O)cc1)c1ccccc1 [4'-Hydroxychalcone]
229E Inhibition rate (229E Inhibition rate, 24 h): 41.2%

CC(=O)NCCCCCN [N-(5-Aminopentyl)acetamide]
229E Inhibition rate: 61.9%

NCCCCCN [Pentane-1,5-diamine (dihydrochloride)]
229E Inhibition rate: 26.5%

CC(=O)NCCc1ccc(O)c(O)c1 [N-acetyldopamine]
229E Inhibition rate: 7.1%

CSCCC(O)C(=O)O (stereo not drawn) [Calcium 2-hydroxy-4-(methylthio)butanoate]
229E Inhibition rate: 18.3%

COc1cc(C(=O)O)cc(O)c1O [3-O-Methylgallic acid]
229E Inhibition rate: 30.8%

C[C@@H]1CC[C@@]2(OC1)O[C@H]1C[C@H]3[C@@H]4CC[C@H]5C[C@@H](O)[C@H](O)C[C@]5(C)[C@H]4CC[C@]3(C)[C@H]1[C@@H]2C [Gitogenin]
229E Inhibition rate: 4.9%

O=C(O)/C=C/c1ccccc1O [2-Hydroxycinnamic acid]
229E Inhibition rate: 20.2%

CCCCCCCCO [1-Octanol]
229E Inhibition rate: 13.9%

OC1OC[C@@H](O)[C@H](O)[C@@H]1O (stereo partly drawn) [D-Lyxose]
229E Inhibition rate: 44.8%

C[C@H]1[C@H](C)CC[C@]2(C)CC[C@]3(C)C(=CC(=O)[C@@H]4[C@@]5(C)CC[C@@H](O)[C@](C)(C(=O)O)[C@@H]5CC[C@]43C)[C@H]12 [11-Keto-beta-boswellic acid]
229E Inhibition rate: 18.8%
